Results published in PMC10545698.
Results are given in words; binding and its absence hold for the method and conditions named. Binding seen in cells or lysates may run through a third protein. Some binding calls cover weakened binding; strength is not graded here.

Amino acid sequences for entries named in this document (tags omitted).
UniProt Q9UHI6: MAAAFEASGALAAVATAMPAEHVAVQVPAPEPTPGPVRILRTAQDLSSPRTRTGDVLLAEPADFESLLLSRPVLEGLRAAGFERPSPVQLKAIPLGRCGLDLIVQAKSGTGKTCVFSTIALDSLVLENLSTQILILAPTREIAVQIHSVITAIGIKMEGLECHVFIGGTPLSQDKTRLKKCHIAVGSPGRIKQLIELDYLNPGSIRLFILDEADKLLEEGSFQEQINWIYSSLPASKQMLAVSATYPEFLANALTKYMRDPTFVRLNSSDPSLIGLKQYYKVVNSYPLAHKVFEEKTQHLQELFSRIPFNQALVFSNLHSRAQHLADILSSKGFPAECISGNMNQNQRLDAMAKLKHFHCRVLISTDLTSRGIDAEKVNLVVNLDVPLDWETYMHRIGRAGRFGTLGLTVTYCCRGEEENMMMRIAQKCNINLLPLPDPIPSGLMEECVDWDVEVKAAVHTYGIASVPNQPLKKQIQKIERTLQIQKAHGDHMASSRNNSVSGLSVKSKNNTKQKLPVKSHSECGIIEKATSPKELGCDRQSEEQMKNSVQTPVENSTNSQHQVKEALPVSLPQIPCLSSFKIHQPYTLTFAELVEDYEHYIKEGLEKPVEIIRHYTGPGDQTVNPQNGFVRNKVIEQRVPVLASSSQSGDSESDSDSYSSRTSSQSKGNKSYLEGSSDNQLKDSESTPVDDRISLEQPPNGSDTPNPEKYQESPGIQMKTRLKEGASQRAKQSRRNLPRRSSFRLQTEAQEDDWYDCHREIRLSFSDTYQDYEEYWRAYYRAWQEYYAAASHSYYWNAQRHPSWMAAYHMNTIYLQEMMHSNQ

Target: T1, WD repeat domain 4 (WDR4) (human (endogenous in UM-UC-3 and 5637)) (UniProt P57081)
T1 sequence: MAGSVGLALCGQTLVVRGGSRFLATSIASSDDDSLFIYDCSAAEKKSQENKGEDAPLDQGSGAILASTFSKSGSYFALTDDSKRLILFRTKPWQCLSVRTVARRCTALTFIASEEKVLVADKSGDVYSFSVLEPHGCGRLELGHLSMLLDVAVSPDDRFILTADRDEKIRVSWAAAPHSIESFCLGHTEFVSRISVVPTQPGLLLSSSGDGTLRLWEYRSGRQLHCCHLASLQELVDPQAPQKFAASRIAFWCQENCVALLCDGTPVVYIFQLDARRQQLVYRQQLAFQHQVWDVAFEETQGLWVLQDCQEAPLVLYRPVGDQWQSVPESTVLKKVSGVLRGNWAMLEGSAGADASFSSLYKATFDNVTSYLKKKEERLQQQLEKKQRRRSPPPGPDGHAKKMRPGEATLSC
Experiment: co-IP; endogenous proteins immunoprecipitated from UM-UC-3 and 5637 cell lysates with anti-WDR4 or anti-DDX20 antibody (2 ug, overnight at 4 C; IgG as control; Protein A/G magnetic beads), Western blot; also in WDR4 KD and Control KD UM-UC-3 cells

For “DEAD-box helicase 20 (DDX20) (from UniProt Q9UHI6 1-824)”, which binding is on record?
The binding was “binds”.
